According to patent US10300044B2, “Polymorphic forms of methyl((1S)-1-(((2S)-2-(5-(4′-(2-((2S)-1-((2S)-2-((methoxycarbonyl)amino)-3-methylbutanoyl)-2-pyrrolidinyl)-1H-imidazol-5-yl)-4-biphenylyl)-1H-imidazol-2-yl)-1-pyrrolidinyl)carbonyl)-2-methylpropyl)carbamate and salts thereof” (Cipla Limited, priority 2014, dated 2019):
Counter-ions that a name gives are not always drawn. At least one structure is not confirmed: it was looked up by name or label, or the drawing left a doubt.

Experiments:
Hygroscopicity = type: physicochemical
[1] = Bulk density and tapped density; type: physicochemical; conditions: dihydrochloride
[2] = storage under long-term or accelerated conditions; cited from earlier work

SMILES | hygroscopicity (Hygroscopicity) | bulk density [1] | tapped density [1] | form change during storage [2]
COC(=O)N[C@H](C(=O)N1CCC[C@H]1c1ncc(-c2ccc(-c3ccc(-c4cnc([C@@H]5CCCN5C(=O)[C@@H](NC(=O)OC)C(C)C)[nH]4)cc3)cc2)[nH]1)C(C)C [Form C, methyl((1S)-1-(((2S)-2-(5-(4′-(2-((2S)-1-((2S)-2-((methoxycarbonyl)amino)-3-methylbutanoyl)-2-pyrrolidinyl)-1H-imidazol-5-yl)-4-biphenylyl)-1H-imidazol-2-yl)-1-pyrrolidinyl)carbonyl)-2-methylpropyl) carbamate dihydrochloride] | substantially non-hygroscopic | 0.5 to 0.6 g/mL | 0.7 to 0.8 g/mL | –
COC(=O)N[C@H](C(=O)N1CCC[C@H]1c1ncc(-c2ccc(-c3ccc(-c4cnc([C@@H]5CCCN5C(=O)[C@@H](NC(=O)OC)C(C)C)[nH]4)cc3)cc2)[nH]1)C(C)C [Form N-2, methyl((1S)-1-(((2S)-2-(5-(4′-(2-((2S)-1-((2S)-2-((methoxycarbonyl)amino)-3-methylbutanoyl)-2-pyrrolidinyl)-1H-imidazol-5-yl)-4-biphenylyl)-1H-imidazol-2-yl)-1-pyrrolidinyl)carbonyl)-2-methylpropyl) carbamate dihydrochloride, reference compound] | – | 0.3 to 0.4 g/mL | 0.4 to 0.5 g/mL | remained unchanged
